Measured data: PubChem BioAssay AID1259405 (NCATS, 2018)
The deposit covers about 50,000 reagents; shown is a random part of them. In the full data, about 4,000 (8%) are marked active. 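Mouse siRNA library applied to hamster cells; one well for each siRNA.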 Reagent sequences are not shown.

Test: 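Knock-downs that lift recombinant protein yield in hamster ovary cells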 (primary screen)
System: Chinese hamster CHO-K1 ovary cells with stable secreted eGFP expression
Knock-down reagent: single siRNA against mouse genes, 0.8 pmol siRNA per well (2 µl of 400 nM stock)
Timing: 3 days
Detection: 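Percent of the per-plate non-targeting control median for intracellular GFP per well by laser scanning cytometry and for cell viability by ATP luminescence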
Scale: GFP, % of control: higher = more GFP per well, higher productivity; viability (ATP), % of control: higher = more viable cells (more ATP)
Rule for the call: 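Called active when intracellular GFP, relative to negative control, is at or above 120%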

| Gene | PubChem SID | GFP, % of control | viability (ATP), % of control | Call |
| --- | --- | --- | --- | --- |
| Ikbkg | SID363581692 | 93.6 | 91.1 | inactive |
| Ikbkg | SID363589186 | 88.6 | 88.2 | inactive |
| Cldn13 | SID363541741 | 83.9 | 83.8 | inactive |
| Cldn13 | SID363553333 | 58.5 | 39.8 | inactive |
| Cldn13 | SID363566657 | 57.8 | 46.3 | inactive |
| Gle1 | SID363540138 | 43.5 | 66.3 | inactive |
| Gle1 | SID363561439 | 45.5 | 43 | inactive |
| Gle1 | SID363564475 | 68.2 | 94.2 | inactive |
| Slc25a41 | SID363545566 | 198 | 92.2 | active |
| Slc25a41 | SID363549079 | 74.1 | 83.8 | inactive |
| Slc25a41 | SID363562885 | 60 | 42.7 | inactive |
| Slc25a41 | SID363589686 | 130 | 84.9 | active |
| Slc25a41 | SID363589867 | 120 | 118 | active |
| Slc25a41 | SID363589868 | 115 | 87.6 | inactive |
| Sdf4 | SID363582478 | 108 | 106 | inactive |
| Sdf4 | SID363584238 | 114 | 63.7 | inactive |
| Glt8d1 | SID363543960 | 143 | 78.6 | active |
| Glt8d1 | SID363551696 | 36.7 | 65.9 | inactive |
| Glt8d1 | SID363559301 | 83.5 | 81 | inactive |
| Nr2e1 | SID363571100 | 140 | 103 | active |
| Nr2e1 | SID363571452 | 80.2 | 68.7 | inactive |
| Nr2e1 | SID363571804 | 40.7 | 35.4 | inactive |
| Irak2 | SID363570822 | 51.4 | 52.3 | inactive |
| Or10al6 | SID363544689 | 47.4 | 96.6 | inactive |
| Or10al6 | SID363551017 | 93.3 | 77.8 | inactive |
| Or10al6 | SID363557566 | 134 | 41 | active |
| Orc2 | SID363569156 | 78 | 87.3 | inactive |
| Orc2 | SID363583588 | 96.8 | 95 | inactive |
| Serpina10 | SID363573012 | 57.5 | 80.3 | inactive |
| Serpina10 | SID363577588 | 61.6 | 69.7 | inactive |
| Serpina10 | SID363581108 | 89.5 | 64.2 | inactive |
| Il1r2 | SID363568646 | 197 | 109 | active |
| Il1r2 | SID363576038 | 74.7 | 80 | inactive |
| Il1r2 | SID363578854 | 74.2 | 79.2 | inactive |
| Galnt10 | SID363545424 | 56.9 | 56.1 | inactive |
| Galnt10 | SID363548937 | 86.1 | 79.7 | inactive |
| Galnt10 | SID363562743 | 61.6 | 81 | inactive |
| Fgf14 | SID363540118 | 54.8 | 86.2 | inactive |
| Fgf14 | SID363561419 | 64.3 | 70.2 | inactive |
| Fgf14 | SID363564455 | 77.5 | 74.2 | inactive |

Next part (3 carried over from the part before).
| Gene | PubChem SID | GFP, % of control | viability (ATP), % of control | Call |
| --- | --- | --- | --- | --- |
| Fgf14 | SID363540118 | 54.8 | 86.2 | inactive |
| Fgf14 | SID363561419 | 64.3 | 70.2 | inactive |
| Fgf14 | SID363564455 | 77.5 | 74.2 | inactive |
| Snd1 | SID363584458 | 87.1 | 73.4 | inactive |
| Snd1 | SID363589488 | 111 | 128 | inactive |
| Slc35e3 | SID363547646 | 78.2 | 83.6 | inactive |
| Slc35e3 | SID363558415 | 104 | 88.9 | inactive |
| Slc35e3 | SID363560173 | 79.3 | 76.9 | inactive |
| Or52n2c | SID363554189 | 136 | 97.5 | active |
| Or52n2c | SID363567636 | 98.7 | 65.6 | inactive |
| Or52n2c | SID363584993 | 54.4 | 81.6 | inactive |
| Psmb2 | SID363574448 | 88.3 | 85.3 | inactive |
| Psmb2 | SID363575504 | 15.7 | 7.73 | inactive |
| Psmb2 | SID363580080 | 28.8 | 6.99 | inactive |
| Diras2 | SID363570307 | 125 | 97.8 | active |
| Diras2 | SID363576643 | 100 | 135 | inactive |
| Diras2 | SID363579811 | 71.6 | 81.3 | inactive |
| Gabrg3 | SID363544038 | 103 | 61.4 | inactive |
| Gabrg3 | SID363550366 | 87.2 | 71.3 | inactive |
| Gabrg3 | SID363556915 | 73.1 | 73.6 | inactive |
| Gabrg3 | SID363574301 | 64.5 | 66.1 | inactive |
| Gabrg3 | SID363575357 | 98.1 | 69.4 | inactive |
| Gabrg3 | SID363579933 | 39.5 | 49.6 | inactive |
| Wdcp | SID363547154 | 41.7 | 85.6 | inactive |
| Wdcp | SID363549966 | 69.2 | 104 | inactive |
| Wdcp | SID363588020 | 93.7 | 114 | inactive |
| Tpk1 | SID363571304 | 104 | 73.4 | inactive |
| Tpk1 | SID363571656 | 60 | 52.8 | inactive |
| Tpk1 | SID363572008 | 77.8 | 74.5 | inactive |
| Cib2 | SID363574988 | 86.3 | 76.3 | inactive |
| Cib2 | SID363580620 | 58.1 | 67.3 | inactive |
| Cib2 | SID363582732 | 60.3 | 66.4 | inactive |
| Slc34a1 | SID363574607 | 106 | 118 | inactive |
| Slc34a1 | SID363575663 | 60.6 | 27.5 | inactive |
| Slc34a1 | SID363580239 | 95.9 | 90.4 | inactive |
| Galr2 | SID363571103 | 110 | 100 | inactive |
| Galr2 | SID363571455 | 50.7 | 83.6 | inactive |
| Galr2 | SID363571807 | 84.2 | 76.7 | inactive |
| Csrnp2 | SID363547182 | 38.5 | 38.8 | inactive |
| Csrnp2 | SID363549994 | 57.6 | 64.8 | inactive |
| Csrnp2 | SID363588048 | 75.8 | 77.5 | inactive |
| Usf2 | SID363573760 | 51.6 | 75.9 | inactive |
| Usf2 | SID363581504 | 76.5 | 77.2 | inactive |
| Usf2 | SID363583968 | 80.2 | 103 | inactive |
| Rp1 | SID363545010 | 42.1 | 74.6 | inactive |
| Rp1 | SID363551338 | 73.5 | 93.3 | inactive |
| Rp1 | SID363557887 | 58 | 102 | inactive |
